The values that follow come from paper PMC9325379.

For this assay, the target named is T1, HIS-RelB2 (Mycobacterium tuberculosis RelB2 antitoxin) (Mycobacterium tuberculosis H37Rv) (UniProt O33347).
T1 sequence: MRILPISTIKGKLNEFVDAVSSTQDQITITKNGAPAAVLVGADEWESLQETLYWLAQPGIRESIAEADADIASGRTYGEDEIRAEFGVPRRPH
Briefly: pull-down.

Results are given in words; binding and its absence hold for the method and conditions named. Binding seen in cells or lysates may run through a third protein. Some results given as binding are weak or reduced against the parent protein; the word gives no strength. Where a sequence is shown, tags or fusion partners need not be part of it.

B1: RelE2-HSV (Mycobacterium tuberculosis RelE2 toxin) (protein, UniProt O33348 1-87)
chain: MPYTVRFTTTARRDLHKLPPRILAAVVEFAFGDLSREPLRVGKPLRRELAGTFSARRGTYRLLYRIDDEHTTVVILRVDHRADIYRR
Consider B1, for which the binding result was “binds”.
